Test results reported in the supplement of paper PMC5949888.
Most values lie at the floor of the assay. Slopes are relative: functional sequences can read slightly below zero.

Each substance was assayed on Saccharomyces cerevisiae PS128 hsf1 delta, HSF1(1-493) fusion (assay: growth estimate (transactivation domain function in HSF1 fusion, heat-shock survival) (a.u. (slope of normalised read count over time)); higher = stronger growth at 37°C, i.e. more transactivation activity). Conditions: library: random library.

Substance | growth estimate
LPVSASRLGKRYDGSRGHPG | < -0.25
LPVYNMRTINGQDVWISAPY | < -0.25
LPY | < -0.25
LQCGNSEFFSSLM | < -0.25
LQDLTLFAE | < -0.25
LQFPLLQLSEDLQQIMEDCT | < -0.25
LQGFKLM | < -0.25
LQGQISTNARIQLPNFPGGD | < -0.25
LQI | < -0.25
LQIFRYDDNNPRFPSSHRLP | < -0.25
LQIWASFSGRSAWRR | < -0.25
LQIY | < -0.25
LQLGQYLGQG | < -0.25
LQLISCHSQRSKSCVCGQHP | < -0.25
LQMLGRG | < -0.25
LQNRGEEPVLPLPLETPGG | < -0.25
LQNVRLLPQVDIEEAYGPAA | -0.233
LQPWTPRLCLTAEVESTVLR | < -0.25
LQQLTENYRGWK | < -0.25
LQRGHGSQEAVNLF | < -0.25
LQRTSTASHGDSCAASGPFC | < -0.25
LQS | < -0.25
LQSADYRIGNLCPRSTVGHK | < -0.25
LQSTRVR | < -0.25
LQSVH | < -0.25

Substance | growth estimate
LQTQVILLVRMF | < -0.25
LQVEWRFQSDSSGSRYRGCC | < -0.25
LQVGEPG | < -0.25
LQYSSQNVLNGTFKFVAAYA | < -0.25
LRAFGNGSKHSY | < -0.25
LRALG | < -0.25
LRALSTRQPATVR | -0.231
LRAYCVGGLDVCLLFYMLSY | < -0.25
LRCDFAPQVVTVIQIL | < -0.25
LRCLPLVASQNKPSSAKFSD | < -0.25
LRCRVSLP | < -0.25
LRCWRL | < -0.25
LRDAGAAAGLPDPRSYDKLH | < -0.25
LRDWRPLPRRDY | < -0.25
LREACRIAAALQDGCLKLAS | < -0.25
LRECGDGRKSIFSIFELVVV | < -0.25
LREGLLEV | < -0.25
LREPRGGQVAGSTRGEKPNV | < -0.25
LREYAGVWSSLGWQIMAPLL | < -0.25
LRFRPGRW | -0.219
LRFVNNSGLPEPFYSTTPVQ | < -0.25
LRGGC | < -0.25
LRGMLICAEWETA | < -0.25
LRGQWSFDYYLRMIGRPERS | < -0.25
LRHGTGPWVGKREEN | < -0.25

Quoted from the listing:
LQLGQYLGQG | growth estimate: < -0.25
LQQLTENYRGWK | growth estimate: < -0.25
LQRGHGSQEAVNLF | growth estimate: < -0.25

Continuation.

Substance | growth estimate
LRIELAVGGWECFWQHTECG | < -0.25
LRIVGGVHDAS | < -0.25
LRIVQLAGVCRR | < -0.25
LRKRDRGAASFTALGFRLRY | < -0.25
LRKVHKHREATGQVSDGVHH | -0.246
LRLAE | < -0.25
LRLAIVGGPGRSKWLYNYSP | < -0.25
LRLDVMGC | < -0.25
LRLGPARVQRVTHIKT | < -0.25
LRLGRVQLSN | < -0.25
LRLIGEDALAPFRTKGGIGG | < -0.25
LRLMHQLCSVVHIKCRARRY | < -0.25
LRLMRMGYSRLLRIGEPGQQ | < -0.25
LRLQPHSRL | < -0.25
LRLSNSATCGYV | < -0.25
LRLYFPNL | < -0.25
LRMRQSLEL | < -0.25
LRNCRHSMGKLLPVVVPLDQ | -0.245
LRNKS | < -0.25
LRPCAMGGTNTSSQLPVSRG | < -0.25
LRPGPRTNAWFGASNLSERN | < -0.25
LRPGTRGQELAGQRARVLGA | < -0.25
LRPMEGRSAPLARTAKYACV | -0.246
LRPNRGKLSTSFVWCP | < -0.25
LRPPIRRASRHSH | < -0.25

Substance | growth estimate
LRPPWKALAPSPSVCHVCGF | < -0.25
LRPVFLKGTLGM | < -0.25
LRQDGDFCSQFSYGRAVIII | < -0.25
LRQFKCDHCASARTVRATAG | < -0.25
LRQSGVTSDLHLADTNGRGC | < -0.25
LRRDSVILIRGQGLTTATIG | < -0.25
LRREETSDGYTI | < -0.25
LRRGFVLPSTSLPLR | < -0.25
LRRIKGKRQRLWL | < -0.25
LRRLEGTVLPTRNFSRHL | < -0.25
LRRPCTMAPSILDRFCHNIT | < -0.25
LRRPRGYRRGSAYSRKFGPV | < -0.25
LRSAANLMVPVIVYTQSWSK | < -0.25
LRSEPNCFAIVLFGGTPV | < -0.25
LRSGCIYGPTSQTRRSTYRV | < -0.25
LRSGLKRVLRVLALTASSRP | < -0.25
LRSPAYPAACHQSSR | < -0.25
LRSRLQ | < -0.25
LRSRPKSGLTYSGLTLKGAV | < -0.25
LRSSCDYHVGQF | < -0.25
LRSTANGRALIGQMVPSRMR | < -0.25
LRSVTRSLGLRTVTPLGHDA | < -0.25
LRTCRASAGPTAVN | < -0.25
LRTEGCLKRNIKGRLGFALR | < -0.25

Some of the entries so far, with each value named:
LQSTRVR
  growth estimate = < -0.25
LQSVH
  growth estimate = < -0.25
LQTQVILLVRMF
  growth estimate = < -0.25
LQVEWRFQSDSSGSRYRGCC
  growth estimate = < -0.25
